From PubChem BioAssay AID652054 (National Center for Advancing Translational Sciences (NCATS), 2013)
Among all 360,000 compounds or so, about 9,100 (2.5%) were called active. Inconclusive results, whose numbers are uncertain, are shown with a selection of clear calls. Cut-off read from the data, not from the text of the source: active = max response below about -50%; inconclusive = no clear call, values can overlap the other calls; inactive = above that.

Chains of the proteins cited; added tags and fusions are not shown.
UniProt P35462, whole entry, looked up: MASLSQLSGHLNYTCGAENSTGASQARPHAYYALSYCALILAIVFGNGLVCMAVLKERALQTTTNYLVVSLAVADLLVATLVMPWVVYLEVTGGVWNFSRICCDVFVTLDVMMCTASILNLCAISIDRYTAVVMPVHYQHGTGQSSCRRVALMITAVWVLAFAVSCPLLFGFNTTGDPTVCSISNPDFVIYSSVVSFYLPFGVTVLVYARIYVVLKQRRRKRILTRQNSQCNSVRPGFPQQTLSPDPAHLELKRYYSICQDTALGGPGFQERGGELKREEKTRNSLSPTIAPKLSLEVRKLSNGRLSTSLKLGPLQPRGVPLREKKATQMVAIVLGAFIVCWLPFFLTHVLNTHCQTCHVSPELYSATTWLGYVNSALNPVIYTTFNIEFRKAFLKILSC

These compounds were tested against D(3) dopamine receptor (Homo sapiens) (UniProt P35462) (assay: qHTS of D3 Dopamine Receptor Antagonist: qHTS). Settings: D3R cells, DiscoveRx beta-arrestin luminescence, antagonist mode; stronger effect = lower value.
Method in brief: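 Cells plated overnight at 1500 cells/well, then exposed to library compounds with dopamine controls for 90 minutes at 37 degrees C. DiscoveRx reagent added for 30–60 minutes at room temperature; luminescence read, quantitative HTS format.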
% is set by controls: 0 for no effect and ±100 for the full control effect.

Row | SMILES | max response, negative = inhibition
1 | Cc1ccc(S(=O)(=O)N2CCN(c3c([N+](=O)[O-])cc(C(F)(F)F)cc3[N+](=O)[O-])CC2)cc1 | inconclusive: -33.6%
2 | COc1ccc(C(=O)NCc2nnc(SCC(=O)c3ccccc3)n2C)cc1OC | inactive: 24.6%
3 | Cc1[nH]n(-c2ccc([N+](=O)[O-])cc2)c(=O)c1C=NCCN1CCN(C(=O)c2ccccc2)CC1 | inconclusive: -44.6%
4 | O=C1C=C(C2OC(CO)C(O)C2O)C(=O)N1 (configuration not stated) | inconclusive: -48.4%
5 | O=C(CN1C(=O)c2ccccc2C1=O)Nc1sc2c(c1C(=O)NCC1CCCO1)CCC2 (configuration not stated) | inconclusive: -38.4%
6 | CCC(CO)Nc1ccc(-c2n[nH]c(=O)c3ccccc23)cc1[N+](=O)[O-] (configuration not stated) | inconclusive: -35%
7 | O=C(Cn1c2[n+](c3ccc(C(F)(F)F)cc31)CCCCC2)c1cccc([N+](=O)[O-])c1 | active: -89.5%
8 | COC(=O)[C@]12CCCCC=C1N(CCC1=CCCCC1)C(=O)[C@H](CC(=O)NCC1CCCCC1)C2 | inactive: 25.3%
9 | COc1ccc(CN2CCN(C(=O)c3ccco3)CC2)cc1 | inconclusive: -40.5%
10 | Cc1cc(C)c(NC(=O)c2ccc(CN3CCc4ccccc4C3)cc2)c(C)c1 | active: -52.8%
11 | COc1cc(NC(=O)Cn2ccsc2=N)c(C)cc1[N+](=O)[O-] | inconclusive: -48.4%
12 | O=C(c1cccc2ccccc12)N1CCC(N2CCN(c3ccccc3)CC2)CC1 | active: -58.2%
13 | O=C1CC(c2ccc(Cl)cc2)CC(=O)C1CS(=O)(=O)c1ccccc1 (configuration not stated) | inconclusive: -32.6%
14 | Cc1ccc2c(c1)C(CCN)C(=O)N2Cc1ccccc1 (configuration not stated) | active: -106%
15 | N#Cc1c(SCC(=O)O)nc(-c2ccccc2)c2c1CCCC2 | inconclusive: -30.7%
16 | O=C(NC1CCCCC1)Sc1ccc(Cl)cc1 | active: -90.6%
17 | Cc1cccc(CN2CCCC(C(=O)N3CCCCC3)C2)c1 (configuration not stated) | inconclusive: -34.7%
18 | Cc1cc(C(C)(C)C)cc(C)c1S(=O)(=O)N1CC(=O)Nc2ccccc21 | inactive: -4.65%
19 | O=C(CSc1nc2ccc(Cl)cc2[nH]1)NCCc1ccc(Cl)cc1 | inconclusive: -32.5%
20 | C[C@H](CO)N1C[C@H](C)[C@@H](CN(C)C(=O)Nc2ccccc2)Oc2ccc(NC(=O)C3CC3)cc2C1=O | inactive: -11.6%
21 | O=C(c1ccc(OC2CCN(CCc3ccccc3)CC2)cc1)N1CCCC(CCCO)C1 (configuration not stated) | inconclusive: -47%
22 | O=C(CN1CCCC1)Nc1c2c(nc3ccccc13)N(Cc1ccccc1)CC2 | inconclusive: -32.3%

Row | SMILES | max response, negative = inhibition
23 | O=C(COC(=O)/C=C/c1cccs1)Nc1cccc(S(=O)(=O)N2CCCC2)c1 | inconclusive: -34.1%
24 | Fc1ccccc1Cc1noc(CN2CCN(C/C=C/c3ccccc3)CC2)n1 | inconclusive: -40.4%
25 | COCCn1nnnc1CN1CCC(NC(=O)Nc2cccc(OC)c2)CC1 | inconclusive: -38.7%
26 | CSc1cccc(NC(=S)NC(=O)c2cccnc2)c1 | inconclusive: -30.9%
27 | COC(=O)CNC(c1ccccc1Cl)c1cc(Br)ccc1NS(=O)(=O)c1ccc(C)cc1 (configuration not stated) | inactive: 1.01%
28 | COc1ccc(/C=N/NC(=O)NC23CC4CC(CC(C4)C2)C3)c(OC)c1 | inconclusive: -48.1%
29 | O=C(CSc1nnc(Nc2ccccc2)s1)NCc1ccco1 | inactive: 14.7%
30 | COc1cc(CNC2CCCC2)cc(Cl)c1OCc1ccccc1Cl | inactive: 19.1%
31 | CCSc1c(C(=O)NC)ccc2c1C(=O)c1ccccc1C2=O | inconclusive: -34.7%
32 | CC1CN(Cc2cc(=O)[nH]c(C(C)C)n2)CC(C)O1 (configuration not stated) | inconclusive: -34%
33 | COc1cc(C)c(CN2CCC(Cc3ccccc3)CC2)cc1C | inconclusive: -32.8%
34 | COc1ccc(NC(=O)N2CCN(c3cccc(C(F)(F)F)c3)CC2)cc1 | inconclusive: -44.9%
35 | Cn1c(SCC(=O)N/N=C/c2ccc([N+](=O)[O-])s2)nnc1-c1ccccc1 | inconclusive: -38.6%
36 | O=C1Oc2ccccc2C(=O)/C1=C/N1CCN(c2ccccc2F)CC1 | active: -59.4%
37 | COc1ccc(N2C(=O)[C@@H]3[C@H](C2=O)[C@H]2c4ccccc4C=CN2[C@@H]3C(=O)Nc2ccccc2)cc1 | inconclusive: -35.3%
38 | Cc1ccc(-c2nc(Nc3cccc(O)c3)c3ccccc3n2)cc1 | inactive: 1.25%
39 | Nc1cc(-c2cccc(F)c2)nn1S(=O)(=O)c1cccc2nsnc12 | inconclusive: -34.7%
40 | COc1ccc(CCN(C)Cc2ccc(OCc3ccccc3)c(OC)c2)cc1OC | inconclusive: -43.1%
41 | CCOC(=O)c1cnc(-c2ccccc2)nc1Oc1ccc(OC)cc1 | inactive: 18.9%
42 | Cc1c(C)c2ccc(OC(C)C(=O)N[C@@H](Cc3c[nH]c4ccccc34)C(=O)O)c(C)c2oc1=O (some centres not stated) | inconclusive: -32.2%
43 | C=CCNC(=O)/C(C#N)=C/c1c(N2CCN(c3cccc(Cl)c3)CC2)nc2c(C)cccn2c1=O | active: -58.6%
44 | Cc1cc(C)nc(Nc2n[nH]c(C)n2)n1 | inactive: -0.222%

A different layout for part of the listing above.
Row	SMILES	max response, negative = inhibition
24	Fc1ccccc1Cc1noc(CN2CCN(C/C=C/c3ccccc3)CC2)n1	inconclusive: -40.4%
25	COCCn1nnnc1CN1CCC(NC(=O)Nc2cccc(OC)c2)CC1	inconclusive: -38.7%

(listing goes on)

Row | SMILES | max response, negative = inhibition
45 | Cc1cc(C(=O)NC(=S)Nc2cccc(C(=O)O)c2C)ccc1[N+](=O)[O-] | inconclusive: -43.2%
46 | CCc1ccc(NC(=S)NC2CC3CCC(C2)N3Cc2ccco2)cc1 (configuration not stated) | inconclusive: -31.1%
47 | Cc1ccc2cccnc2c1NC(=S)NC(=O)c1ccccc1 | inconclusive: -34.6%
48 | O=c1cc(N2CCCCC2)c(-c2ccccc2)nn1Cc1ccc(F)cc1 | inactive: -12.1%
49 | C/C(=N\NC(=O)Cn1c(-c2ccccn2)nc2ccccc21)c1ccccc1 | inconclusive: -31%
50 | OC(c1ccccc1)c1nc(-c2cccc(F)c2)cs1 (configuration not stated) | active: -55.4%
51 | Cc1cccc(C)c1OCCOCCN1CCN(C)CC1 | inconclusive: -39.6%
52 | CCn1c(COc2ccccc2)nnc1SCC(=O)C(C)(C)C | inconclusive: -43.8%
53 | Cc1ccc(OCc2cc(C(=O)N(C)CCc3ccccn3)no2)cc1C | inactive: -0.991%
54 | COc1cccc(NS(=O)(=O)c2ccc(Br)s2)c1 | inconclusive: -38.9%
55 | CCN(CC)CCNC(=O)C(Oc1ccccc1)Oc1ccccc1 | inconclusive: -37.8%
56 | O=C(Nc1ccccc1Cl)C1C2CCCCC21 (configuration not stated) | inconclusive: -41.5%
57 | COc1ccc(S(=O)(=O)N2CCC(C(=O)Oc3c(OC)cccc3OC)CC2)cc1OC | inconclusive: -42.3%
58 | CCNC(=O)C1(C)CCN(Cc2ccc(-c3ccccc3)cc2)C1 (configuration not stated) | inconclusive: -48.5%
59 | COc1ccccc1N1CCNC(C)C1=O (configuration not stated) | inconclusive: -31.8%
60 | O=C(COC(=O)/C=C/c1ccc(Cl)cc1)NC1CC1 | inconclusive: -38.9%
61 | c1cncc(-c2nnc(-c3cccnc3)nn2)c1 | inconclusive: -44.8%
62 | CC(C)CCOP(=O)(c1ccc(N(C)C)cc1)C(Nc1ccccc1)c1ccc(N(C)C)cc1 (configuration not stated) | inconclusive: -44%
63 | CCc1ccc([C@H]2C(C(=O)O)=C[C@@H](CC)N2S(=O)(=O)c2ccc(C)cc2)cc1 | inconclusive: -47.2%
64 | CC(CNC(=O)c1cc(Cl)ccc1[N+](=O)[O-])NC(=O)c1cc(Cl)ccc1[N+](=O)[O-] (configuration not stated) | inconclusive: -38%
65 | CCN1CCN(C(=O)c2ccc3c(c2)N(Cc2ccccc2F)C(=O)c2ccccc2S3(=O)=O)CC1 | active: -61%
66 | COc1ccc(Nc2nc(NCc3ccco3)nc(N/N=C/c3ccccc3F)n2)cc1 | active: -54.1%

Row | SMILES | max response, negative = inhibition
67 | Cc1ccc(-n2c(SCC(=O)N3CCCCC3)nc(O)c(Cc3ccccc3)c2=O)cc1 | inactive: -17.8%
68 | Cc1ccc(NC(=O)Nn2cnnc2)c(C)c1 | inconclusive: -35.9%
69 | O=C(c1cnn2c(C(F)F)cc(-c3ccccc3)nc12)N1CCN2CCCC2C1 (configuration not stated) | inconclusive: -42.9%
70 | Cc1cccnc1NC(=O)CCNC(=O)c1ccc(Br)cc1 | inconclusive: -35.9%
71 | Cc1cc(C(=O)N/N=C/c2cccc(OC(=O)c3cccc(Br)c3)c2)n[nH]1 | inactive: 0.996%
72 | C=CCNc1oc(-c2cccs2)nc1C#N | inconclusive: -32.5%
73 | CCc1ccc(NC(=O)CSc2nc(NS(=O)(=O)c3ccccc3)cc(=O)[nH]2)cc1 | inconclusive: -33.1%
74 | O=C(COC(=O)c1ccc(O)cc1)c1ccc2c(c1)OCCO2 | inactive: -16.8%
75 | COC(=O)C1CCN(C(=O)/C=C/c2ccccc2)CC1 | inconclusive: -35%
76 | O=C(OCc1ccccc1)N1CCC2CC1c1ccc(Cl)cc12 (configuration not stated) | inconclusive: -36.7%
77 | Cc1ccccc1C(=O)c1cccn1CC(=O)NCCN1CCN(c2cccc(C)c2C)CC1 | inconclusive: -48%
78 | Cc1nc(NC2CCCCC2)c2nnn(Cc3ccccc3Cl)c2n1 | inconclusive: -42.6%
79 | Cc1cccc2c(=O)cc(C)n(CC(=O)N3CCCCC3)c12 | inactive: 10.6%
80 | Cc1ccc(/C(C#N)=C\c2ccc(N3CCOCC3)o2)cc1 | active: -64.8%
81 | COc1cccc(C(C)(O)c2nc(-c3ccc(S(C)(=O)=O)cc3)cs2)c1 (configuration not stated) | inactive: -13%
82 | O=C(OCc1cn([C@@H]2CN(Cc3cccs3)[C@@H](c3ccc(Cl)cc3)C[C@H]2O)nn1)c1ccccc1 | inconclusive: -42.4%
83 | CCCCCCCCS(=O)c1sc2nc(C)cc(C)c2c1N (configuration not stated) | inactive: 27.7%
84 | CC1CC(C)CN(CCOc2ccc(Cl)cc2Cl)C1 (configuration not stated) | active: -96.7%
85 | COC(=O)C1CC2=C(CCCC2=O)N(c2ccccc2)C1=O (configuration not stated) | inconclusive: -41.8%
86 | O=C(OCc1cn([C@@H]2CN(CC3CCCCC3)[C@@H](c3ccc(Cl)cc3)C[C@H]2O)nn1)c1ccccc1 | inactive: 0%
87 | CC1CN=C(c2ccccc2)O1 (configuration not stated) | inactive: 14.7%

Nos. 83–84 of the list above:
Row | SMILES | max response, negative = inhibition
83 | CCCCCCCCS(=O)c1sc2nc(C)cc(C)c2c1N (configuration not stated) | inactive: 27.7%
84 | CC1CC(C)CN(CCOc2ccc(Cl)cc2Cl)C1 (configuration not stated) | active: -96.7%
